Measured values from the supplement of paper PMC10849652.
Some of the results follow.

By UniProt entry, the sequences of proteins in these tests, tags left out. Where a name states a change or a piece, a line headed by the entry shows the natural chain unless it says otherwise.
UniProt P60604: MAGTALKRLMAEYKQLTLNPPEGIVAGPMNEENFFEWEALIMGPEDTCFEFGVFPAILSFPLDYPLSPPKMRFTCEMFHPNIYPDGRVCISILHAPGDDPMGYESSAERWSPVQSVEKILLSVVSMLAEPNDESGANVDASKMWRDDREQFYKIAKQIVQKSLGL
UniProt Q9UMX0, whole entry, looked up: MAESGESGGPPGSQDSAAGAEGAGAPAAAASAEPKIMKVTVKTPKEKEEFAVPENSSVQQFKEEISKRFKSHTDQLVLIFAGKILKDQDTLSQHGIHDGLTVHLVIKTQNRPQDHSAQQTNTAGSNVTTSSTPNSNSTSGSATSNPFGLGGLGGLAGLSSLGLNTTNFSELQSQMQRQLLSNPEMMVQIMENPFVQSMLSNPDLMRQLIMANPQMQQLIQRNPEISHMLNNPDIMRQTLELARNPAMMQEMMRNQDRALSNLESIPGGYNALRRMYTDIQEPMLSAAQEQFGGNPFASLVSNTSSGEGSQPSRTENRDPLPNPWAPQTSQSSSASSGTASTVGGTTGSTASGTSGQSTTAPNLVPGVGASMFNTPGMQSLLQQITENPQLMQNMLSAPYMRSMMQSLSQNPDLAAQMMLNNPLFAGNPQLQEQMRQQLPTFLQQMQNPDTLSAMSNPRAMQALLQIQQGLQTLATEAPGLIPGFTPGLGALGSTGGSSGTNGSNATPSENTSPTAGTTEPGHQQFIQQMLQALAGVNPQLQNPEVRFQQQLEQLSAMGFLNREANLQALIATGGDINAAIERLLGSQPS
UniProt Q5T4S7, whole entry, looked up: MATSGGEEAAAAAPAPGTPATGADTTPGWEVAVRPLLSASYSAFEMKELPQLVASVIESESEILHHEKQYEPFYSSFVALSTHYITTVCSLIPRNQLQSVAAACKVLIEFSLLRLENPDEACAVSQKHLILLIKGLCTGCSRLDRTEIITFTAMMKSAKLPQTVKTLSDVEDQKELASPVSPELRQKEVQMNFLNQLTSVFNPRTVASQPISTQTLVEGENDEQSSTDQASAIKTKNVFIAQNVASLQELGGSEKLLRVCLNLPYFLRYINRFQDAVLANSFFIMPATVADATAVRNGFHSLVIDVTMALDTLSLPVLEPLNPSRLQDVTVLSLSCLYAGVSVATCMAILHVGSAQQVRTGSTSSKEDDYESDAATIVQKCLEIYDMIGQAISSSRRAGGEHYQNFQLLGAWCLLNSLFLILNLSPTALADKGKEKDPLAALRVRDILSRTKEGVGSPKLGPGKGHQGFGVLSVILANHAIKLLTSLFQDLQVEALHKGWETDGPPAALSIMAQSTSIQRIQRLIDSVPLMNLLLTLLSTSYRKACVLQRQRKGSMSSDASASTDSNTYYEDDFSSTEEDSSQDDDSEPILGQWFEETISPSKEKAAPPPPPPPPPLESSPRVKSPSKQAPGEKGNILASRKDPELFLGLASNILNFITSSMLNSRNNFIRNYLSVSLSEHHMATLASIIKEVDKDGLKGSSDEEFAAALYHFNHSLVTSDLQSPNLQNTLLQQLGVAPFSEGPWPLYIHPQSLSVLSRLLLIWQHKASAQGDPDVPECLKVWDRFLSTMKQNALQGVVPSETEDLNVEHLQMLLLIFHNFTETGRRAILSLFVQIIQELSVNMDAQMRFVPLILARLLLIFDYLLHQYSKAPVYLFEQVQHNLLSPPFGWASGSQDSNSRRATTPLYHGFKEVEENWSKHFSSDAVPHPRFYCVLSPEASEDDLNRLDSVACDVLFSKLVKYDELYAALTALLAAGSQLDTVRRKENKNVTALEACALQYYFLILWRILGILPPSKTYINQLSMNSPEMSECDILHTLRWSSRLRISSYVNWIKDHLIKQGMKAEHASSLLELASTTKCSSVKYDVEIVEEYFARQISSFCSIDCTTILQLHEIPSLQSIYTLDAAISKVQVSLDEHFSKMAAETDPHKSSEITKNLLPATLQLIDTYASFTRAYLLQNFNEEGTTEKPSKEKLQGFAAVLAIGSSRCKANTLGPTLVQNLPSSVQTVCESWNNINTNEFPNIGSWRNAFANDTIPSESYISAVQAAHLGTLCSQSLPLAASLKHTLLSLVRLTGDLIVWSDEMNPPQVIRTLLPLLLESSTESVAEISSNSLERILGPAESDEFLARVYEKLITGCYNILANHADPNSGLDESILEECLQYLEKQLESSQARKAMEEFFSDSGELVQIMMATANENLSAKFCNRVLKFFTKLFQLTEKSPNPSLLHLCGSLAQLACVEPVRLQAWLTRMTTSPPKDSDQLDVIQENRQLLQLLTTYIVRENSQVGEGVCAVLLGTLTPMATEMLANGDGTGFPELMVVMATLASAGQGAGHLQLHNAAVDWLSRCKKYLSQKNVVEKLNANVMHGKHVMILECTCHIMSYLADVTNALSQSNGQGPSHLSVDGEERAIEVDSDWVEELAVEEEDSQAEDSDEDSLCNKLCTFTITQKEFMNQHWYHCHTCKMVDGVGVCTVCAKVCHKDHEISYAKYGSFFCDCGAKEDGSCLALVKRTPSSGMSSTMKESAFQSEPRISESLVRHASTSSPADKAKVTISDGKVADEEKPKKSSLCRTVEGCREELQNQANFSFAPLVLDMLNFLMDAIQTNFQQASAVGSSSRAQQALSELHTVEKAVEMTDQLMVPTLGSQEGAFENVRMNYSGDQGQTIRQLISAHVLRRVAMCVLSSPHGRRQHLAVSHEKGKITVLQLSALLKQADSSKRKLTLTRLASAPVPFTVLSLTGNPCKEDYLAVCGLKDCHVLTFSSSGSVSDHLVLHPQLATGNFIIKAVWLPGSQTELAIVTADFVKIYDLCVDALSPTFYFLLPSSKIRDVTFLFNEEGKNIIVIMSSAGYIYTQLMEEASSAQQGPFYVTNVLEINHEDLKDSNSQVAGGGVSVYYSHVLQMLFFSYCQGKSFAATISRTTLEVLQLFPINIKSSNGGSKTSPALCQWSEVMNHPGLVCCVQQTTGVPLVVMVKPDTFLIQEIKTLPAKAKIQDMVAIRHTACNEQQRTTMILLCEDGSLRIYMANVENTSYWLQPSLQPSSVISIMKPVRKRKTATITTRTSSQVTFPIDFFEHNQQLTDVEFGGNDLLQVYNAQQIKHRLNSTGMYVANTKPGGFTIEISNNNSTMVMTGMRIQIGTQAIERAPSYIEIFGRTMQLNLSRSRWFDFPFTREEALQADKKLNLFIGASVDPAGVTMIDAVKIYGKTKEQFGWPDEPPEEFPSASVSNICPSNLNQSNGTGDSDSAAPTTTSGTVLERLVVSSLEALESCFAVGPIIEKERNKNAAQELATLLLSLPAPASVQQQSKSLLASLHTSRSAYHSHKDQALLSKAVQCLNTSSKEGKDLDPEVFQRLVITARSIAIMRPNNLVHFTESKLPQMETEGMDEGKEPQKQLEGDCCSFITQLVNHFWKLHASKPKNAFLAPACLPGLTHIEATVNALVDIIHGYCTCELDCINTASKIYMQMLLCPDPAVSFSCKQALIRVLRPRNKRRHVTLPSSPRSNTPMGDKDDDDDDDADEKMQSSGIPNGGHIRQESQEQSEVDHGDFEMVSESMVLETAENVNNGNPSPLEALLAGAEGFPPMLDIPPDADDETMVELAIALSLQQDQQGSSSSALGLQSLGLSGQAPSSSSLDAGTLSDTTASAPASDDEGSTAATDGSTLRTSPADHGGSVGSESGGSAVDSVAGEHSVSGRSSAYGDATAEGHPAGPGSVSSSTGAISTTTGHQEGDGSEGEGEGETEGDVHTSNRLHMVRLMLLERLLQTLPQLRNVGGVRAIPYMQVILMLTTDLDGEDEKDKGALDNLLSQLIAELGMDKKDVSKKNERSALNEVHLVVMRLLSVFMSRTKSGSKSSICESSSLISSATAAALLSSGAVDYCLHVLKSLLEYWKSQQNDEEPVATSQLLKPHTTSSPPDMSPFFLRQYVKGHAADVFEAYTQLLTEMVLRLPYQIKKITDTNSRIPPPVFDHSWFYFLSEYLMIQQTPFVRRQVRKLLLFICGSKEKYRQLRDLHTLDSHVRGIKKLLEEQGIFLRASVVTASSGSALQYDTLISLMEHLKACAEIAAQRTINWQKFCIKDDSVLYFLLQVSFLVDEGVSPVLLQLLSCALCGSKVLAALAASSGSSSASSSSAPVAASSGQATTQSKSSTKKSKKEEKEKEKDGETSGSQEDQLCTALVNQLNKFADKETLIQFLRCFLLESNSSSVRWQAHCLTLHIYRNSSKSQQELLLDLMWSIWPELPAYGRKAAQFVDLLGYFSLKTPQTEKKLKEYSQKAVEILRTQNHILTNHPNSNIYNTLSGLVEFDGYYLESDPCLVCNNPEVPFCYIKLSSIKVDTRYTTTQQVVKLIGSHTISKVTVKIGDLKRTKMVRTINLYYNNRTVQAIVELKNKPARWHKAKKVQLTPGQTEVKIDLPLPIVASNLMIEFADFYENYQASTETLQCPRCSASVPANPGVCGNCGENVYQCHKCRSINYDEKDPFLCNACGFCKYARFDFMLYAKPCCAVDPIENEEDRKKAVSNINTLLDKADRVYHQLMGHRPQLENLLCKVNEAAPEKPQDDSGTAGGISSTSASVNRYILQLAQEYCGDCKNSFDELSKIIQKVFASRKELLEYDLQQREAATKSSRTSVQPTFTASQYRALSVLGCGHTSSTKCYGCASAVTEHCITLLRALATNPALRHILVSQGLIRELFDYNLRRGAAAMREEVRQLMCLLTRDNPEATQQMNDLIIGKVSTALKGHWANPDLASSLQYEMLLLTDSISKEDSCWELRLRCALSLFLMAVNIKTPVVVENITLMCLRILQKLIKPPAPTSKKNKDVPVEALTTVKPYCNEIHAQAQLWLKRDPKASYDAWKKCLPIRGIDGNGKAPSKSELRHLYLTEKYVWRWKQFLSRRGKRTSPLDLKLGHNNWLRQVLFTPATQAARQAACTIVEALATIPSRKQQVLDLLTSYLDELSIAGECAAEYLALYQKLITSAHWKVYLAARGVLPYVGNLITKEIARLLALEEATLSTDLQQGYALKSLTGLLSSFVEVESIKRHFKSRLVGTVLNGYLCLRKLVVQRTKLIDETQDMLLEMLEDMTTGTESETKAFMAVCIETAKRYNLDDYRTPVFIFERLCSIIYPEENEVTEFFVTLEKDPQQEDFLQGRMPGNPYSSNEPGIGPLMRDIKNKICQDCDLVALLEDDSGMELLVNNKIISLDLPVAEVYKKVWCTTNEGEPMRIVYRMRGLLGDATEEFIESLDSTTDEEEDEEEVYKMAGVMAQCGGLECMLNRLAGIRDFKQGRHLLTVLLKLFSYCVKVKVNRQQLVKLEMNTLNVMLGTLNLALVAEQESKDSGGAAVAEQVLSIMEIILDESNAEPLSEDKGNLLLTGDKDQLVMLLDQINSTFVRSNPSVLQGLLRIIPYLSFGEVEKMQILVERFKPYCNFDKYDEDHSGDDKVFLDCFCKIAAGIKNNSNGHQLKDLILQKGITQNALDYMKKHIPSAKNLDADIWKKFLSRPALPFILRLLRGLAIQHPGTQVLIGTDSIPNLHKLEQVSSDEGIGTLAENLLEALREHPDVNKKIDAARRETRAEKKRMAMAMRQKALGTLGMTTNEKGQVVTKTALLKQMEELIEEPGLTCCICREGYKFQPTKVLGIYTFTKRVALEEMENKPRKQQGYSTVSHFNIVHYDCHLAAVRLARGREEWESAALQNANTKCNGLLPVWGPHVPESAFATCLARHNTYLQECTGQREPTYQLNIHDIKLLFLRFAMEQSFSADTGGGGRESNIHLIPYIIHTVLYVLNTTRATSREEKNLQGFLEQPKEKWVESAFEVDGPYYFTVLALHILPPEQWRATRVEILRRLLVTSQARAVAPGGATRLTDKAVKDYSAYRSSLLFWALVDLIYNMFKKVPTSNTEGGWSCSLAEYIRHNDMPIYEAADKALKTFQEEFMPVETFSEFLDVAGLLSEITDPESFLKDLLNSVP
UniProt Q9BZL1: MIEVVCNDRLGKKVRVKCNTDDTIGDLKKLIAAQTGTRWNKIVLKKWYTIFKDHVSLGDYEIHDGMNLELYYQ
UniProt O75386: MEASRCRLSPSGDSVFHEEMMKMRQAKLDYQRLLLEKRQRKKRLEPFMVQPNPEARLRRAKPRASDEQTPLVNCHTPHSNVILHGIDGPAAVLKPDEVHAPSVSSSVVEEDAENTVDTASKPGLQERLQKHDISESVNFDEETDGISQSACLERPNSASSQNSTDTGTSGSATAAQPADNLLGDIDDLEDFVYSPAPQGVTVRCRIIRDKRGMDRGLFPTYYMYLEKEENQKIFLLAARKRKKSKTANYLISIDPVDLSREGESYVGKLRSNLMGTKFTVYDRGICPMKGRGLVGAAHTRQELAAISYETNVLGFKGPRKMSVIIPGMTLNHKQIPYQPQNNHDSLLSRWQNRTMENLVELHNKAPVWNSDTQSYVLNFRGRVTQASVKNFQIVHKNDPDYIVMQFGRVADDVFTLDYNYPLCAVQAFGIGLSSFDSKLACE

Assays:
Assay in all cases: log2 fold change, soluble protein after heating vs DMSO (PISA); higher = thermal stabilisation; K562 lysate, 10 uM; active = over 0.2 and 3.5 SD of the protein, either way, in both replicates (recomputed)
[1] = compound: CCCS(=O)(=O)Nc1ccc(F)c(C(=O)c2c[nH]c3ncc(-c4ccc(Cl)cc4)cc23)c1F [vemurafenib]
Method in brief: (§1)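 Following dounce homogenisation of K562 pellets in PBS pH 7.4 with 1 mM MgCl2, crude extract at 1 mg/mL protein was incubated for 30 min with 10 μM compound. Aliquots were then heated for 3 min over 48°C-58°C and pooled, NP-40 was added to 0.5% at 4°C, and soluble protein was recovered as the supernatant at 21,000xg for 90 min. Channel-sum-equalised TMTpro 16plex LC-MS/MS quantified this protein. Each value, from duplicates, is a log-two fold change in thermal stability relative to solvent controls.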

[2] = compound: CCCS(=O)(=O)Nc1ccc(F)c(C(=O)c2c[nH]c3ncc(Cl)cc23)c1F
Method in brief: as §1

[3] = compound: CCN(CCCOc1ccc2c(Nc3cc(CC(=O)Nc4cccc(F)c4)[nH]n3)ncnc2c1)CCOP(=O)(O)O [barasertib]
Method in brief: as §1

[4] = compound: CC[C@@H]1C(=O)N(C)c2cnc(Nc3ccc(C(=O)NC4CCN(C)CC4)cc3OC)nc2N1C1CCCC1
Method in brief: as §1

[5] = compound: CC[C@@H]1C(=O)N(C)c2cnc(Nc3ccc(C(=O)N[C@H]4CC[C@H](N5CCN(CC6CC6)CC5)CC4)cc3OC)nc2N1C(C)C [volasertib]
Method in brief: as §1

[6] = compound: CCn1c(C(=O)N(C2CC2)C2CC2)cc2c3c(ncn3C)c(Nc3cc(C)n(C)n3)nc21
Method in brief: as §1

[7] = compound: CCn1cc(-c2ccnc3[nH]c(-c4cccc(CN(C)C)c4)cc23)c(-c2ccc(NC(=O)N(C)C)cc2)n1
Method in brief: as §1

[8] = compound: CN1CCC(CNc2ccc3ncc(-c4cccc(OC(F)(F)F)c4)n3n2)CC1
Method in brief: as §1

[9] = compound: CN1CCN(c2nc(C3=C(c4c[nH]c5ccccc45)C(=O)NC3=O)c3ccccc3n2)CC1 [sotrastaurin]
Method in brief: as §1

[10] = compound: CN1CCN(CCOc2cc(OC3CCOCC3)c3c(Nc4c(Cl)ccc5c4OCO5)ncnc3c2)CC1 [saracatinib]
Method in brief: as §1

Measured: log2 fold change

TUBB6 (UniProt K7ES63)
inactive: [1] 0.072 | [2] -0.027 | [3] -0.012 | [4] -0.096 | [5] -0.064 | [6] 0.018 | [7] -0.06 | [8] 0.23 | [9] 0.036

UBE2G2 (UniProt P60604)
inactive: [1] -0.08 | [2] 0.047 | [4] -0.188 | [5] 0 | [6] 0.099 | [7] 0.171 | [8] 0.019 | [10] 0.086 | [9] -0.079

UBN1 (UniProt Q9NPG3)
inactive: [1] -0.053 | [2] -0.069 | [4] 0.1 | [5] 0.005 | [7] -0.127 | [8] 0.057 | [10] 0.04 | [9] 0.133

UBQLN1 isoform 2 (UniProt Q9UMX0)
inactive: [1] -0.108 | [2] 0.065 | [4] 0.024 | [5] -0.021 | [6] -0.058 | [10] -0.06 | [9] 0.034

TXNDC16 (UniProt Q9P2K2)
inactive: [1] -0.06 | [2] 0.21 | [5] -0.123 | [6] 0.095 | [7] -0.014 | [8] -0.068 | [10] 0.068 | [9] -0.099

UBE2Z (UniProt Q9H832)
inactive: [1] -0.009 | [2] 0.011 | [3] 0.022 | [4] 0.057 | [5] -0.011 | [6] 0.038 | [7] -0.104 | [8] 0.037 | [10] -0.017 | [9] -0.067

UBR4 isoform 4 (UniProt Q5T4S7)
inactive: [1] 0.02 | [2] -0.1 | [4] -0.096 | [5] -0.104 | [6] 0.077 | [10] 0.061

Looked up one by one from above (two):
UBR4 isoform 4 (UniProt Q5T4S7)
inactive: [1] 0.02 | [2] -0.1 | [4] -0.096 | [5] -0.104 | [6] 0.077 | [10] 0.061

TXNDC16 (UniProt Q9P2K2)
inactive: [1] -0.06 | [2] 0.21 | [5] -0.123 | [6] 0.095 | [7] -0.014 | [8] -0.068 | [10] 0.068 | [9] -0.099

Continued.

TUBB2A (UniProt Q13885)
inactive: [1] -0.001 | [2] 0.016 | [3] -0.013 | [4] -0.007 | [5] -0.049 | [6] 0.003 | [7] -0.032 | [8] 0.002 | [10] 0.011 | [9] 0.017

TUBB3 (UniProt Q13509)
inactive: [1] -0.004 | [2] 0.018 | [3] -0.042 | [4] -0.019 | [5] -0.046 | [6] 0.027 | [7] -0.002 | [8] 0.012 | [10] 0.015 | [9] 0.027

TXNRD1 (UniProt Q16881)
inactive: [1] 0.033 | [2] 0.003 | [3] -0.007 | [4] -0.052 | [5] 0.011 | [6] -0.002 | [7] -0.09 | [8] 0.048 | [10] 0.014 | [9] 0.014

TUBB4A (UniProt M0QYM7)
inactive: [1] 0.019 | [2] -0.099 | [3] 0.315 | [4] -0.193 | [5] -0.069 | [6] -0.053 | [7] -0.772 | [8] 0.448 | [9] 0.111

UBAP2L (UniProt F8W726)
inactive: [1] 0.094 | [2] -0.031 | [5] -0.018 | [9] -0.052

UBA6
inactive: [1] 0.009 | [2] -0.002 | [3] 0.051 | [4] -0.04 | [5] -0.037 | [6] 0.001 | [7] 0.061 | [8] -0.017 | [10] 0.02 | [9] 0.013

TUT4 (UniProt Q5TAX3)
inactive: [1] 0.091 | [2] -0.007 | [3] 0.024 | [4] -0.021 | [5] -0.06 | [6] 0.031 | [7] -0.085 | [8] 0.083 | [10] -0.01 | [9] 0.035

UBR7 (UniProt Q8N806)
inactive: [1] -0.005 | [2] 0.004 | [3] -0.017 | [4] 0.018 | [5] -0.017 | [6] -0.026 | [7] 0.188 | [8] -0.092 | [10] 0.006 | [9] 0.036

UBL5 (UniProt Q9BZL1)
inactive: [1] 0.014 | [3] 0.036 | [4] -0.015 | [6] -0.028 | [7] -0.126 | [8] 0.097 | [10] -0.007 | [9] -0.186

UBFD1 (UniProt O14562)
inactive: [1] 0.022 | [2] 0.004 | [3] -0.007 | [4] 0.055 | [5] 0.016 | [6] -0.036 | [7] -0.031 | [8] 0.031 | [10] 0 | [9] -0.01

TULP3 isoform 2 (UniProt O75386)
inactive: [1] -0.064 | [6] 0.122 | [10] -0.017

TUBB4A (UniProt P04350)
inactive: [2] 0.036 | [3] -0.006 | [4] 0.045 | [5] 0.104 | [6] 0.02 | [7] -0.09 | [8] 0 | [10] -0.033 | [9] -0.007
